These are yes or no findings as the source states them, for the method shown. Binding seen in cells or lysates may run through a third protein. A yes stands for co-enrichment or nearness to the bait. Other partners may have been found.
Experiments:
[1] = molecular target: GIGANTEA with C-terminal 3xFLAG-6xHis tag (GI‐3F6H) (Arabidopsis thaliana) (UniProt Q9SQI2); experiment: affinity purification with mass spectrometry; qualitative study: tandem affinity purification (FLAG and His tags) of GI-3F6H from plants grown in long days and harvested at ZT13 on day 14; RIPA or SII buffer; on-bead digest, peptide counts; WT plants as control
[2] = molecular target: GIGANTEA with C-terminal 3xFLAG-6xHis tag (GI‐3F6H) (Arabidopsis thaliana) (UniProt Q9SQI2); experiment: affinity purification with mass spectrometry; time series study: tandem affinity purification (FLAG and His tags) of GI-3F6H from rosettes grown in short days, six time points plus ZT31; on-bead digest, label-free quantitation; WT plants as control
[3] = molecular target: GIGANTEA with C-terminal 3xFLAG-6xHis tag (GI‐3F6H) (Arabidopsis thaliana) (UniProt Q9SQI2); experiment: affinity purification with mass spectrometry; preliminary study: tandem affinity purification of GI-3F6H, silver-stained gel, LC-MS of excised bands; plants harvested at ZT8

Amino acid sequences for entries named in this document (tags omitted). A change or cut given only in a name is not applied to a line headed by its entry.
UniProt Q9SQI2: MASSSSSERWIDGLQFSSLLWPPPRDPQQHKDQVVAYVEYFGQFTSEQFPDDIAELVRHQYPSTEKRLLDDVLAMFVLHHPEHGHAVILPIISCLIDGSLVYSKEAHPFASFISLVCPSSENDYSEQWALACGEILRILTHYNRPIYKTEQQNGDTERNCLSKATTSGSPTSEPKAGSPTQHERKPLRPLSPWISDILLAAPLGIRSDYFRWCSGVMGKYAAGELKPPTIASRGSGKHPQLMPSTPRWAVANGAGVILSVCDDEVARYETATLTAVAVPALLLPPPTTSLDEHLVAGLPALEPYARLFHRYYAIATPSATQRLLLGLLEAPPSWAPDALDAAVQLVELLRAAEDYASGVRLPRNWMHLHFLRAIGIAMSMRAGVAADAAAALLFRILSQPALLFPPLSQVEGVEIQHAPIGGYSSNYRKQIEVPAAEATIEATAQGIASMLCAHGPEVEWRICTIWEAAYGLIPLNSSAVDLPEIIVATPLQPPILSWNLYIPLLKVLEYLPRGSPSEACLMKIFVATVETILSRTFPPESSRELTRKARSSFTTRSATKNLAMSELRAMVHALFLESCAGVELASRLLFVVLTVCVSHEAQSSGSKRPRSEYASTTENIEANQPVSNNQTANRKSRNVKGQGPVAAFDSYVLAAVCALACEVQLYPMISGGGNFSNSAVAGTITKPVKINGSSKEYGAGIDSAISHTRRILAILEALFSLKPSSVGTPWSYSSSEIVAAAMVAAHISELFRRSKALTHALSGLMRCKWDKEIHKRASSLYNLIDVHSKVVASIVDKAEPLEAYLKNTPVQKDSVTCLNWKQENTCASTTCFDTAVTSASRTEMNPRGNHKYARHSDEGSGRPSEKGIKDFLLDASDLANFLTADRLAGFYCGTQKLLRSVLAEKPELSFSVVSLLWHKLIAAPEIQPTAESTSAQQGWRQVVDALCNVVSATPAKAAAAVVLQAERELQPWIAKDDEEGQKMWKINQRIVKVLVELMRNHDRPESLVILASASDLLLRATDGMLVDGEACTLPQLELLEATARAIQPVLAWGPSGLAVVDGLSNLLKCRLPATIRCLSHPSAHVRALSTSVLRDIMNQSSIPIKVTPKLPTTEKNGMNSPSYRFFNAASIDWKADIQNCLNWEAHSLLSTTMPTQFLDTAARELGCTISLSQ
UniProt Q9M888: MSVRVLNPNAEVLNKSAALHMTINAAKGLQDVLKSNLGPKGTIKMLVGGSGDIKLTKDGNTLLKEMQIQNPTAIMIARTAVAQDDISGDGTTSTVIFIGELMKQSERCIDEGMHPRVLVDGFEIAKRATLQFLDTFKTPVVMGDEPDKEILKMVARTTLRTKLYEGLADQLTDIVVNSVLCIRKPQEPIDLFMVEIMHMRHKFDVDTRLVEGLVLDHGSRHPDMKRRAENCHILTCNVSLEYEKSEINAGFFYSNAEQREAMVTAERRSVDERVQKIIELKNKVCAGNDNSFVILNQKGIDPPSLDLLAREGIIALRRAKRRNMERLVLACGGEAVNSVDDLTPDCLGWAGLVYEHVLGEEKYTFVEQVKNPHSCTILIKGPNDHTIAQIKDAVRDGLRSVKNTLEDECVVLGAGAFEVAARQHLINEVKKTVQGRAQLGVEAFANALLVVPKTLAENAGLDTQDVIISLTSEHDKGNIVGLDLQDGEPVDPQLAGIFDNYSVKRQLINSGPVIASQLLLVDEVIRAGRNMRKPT
UniProt Q9C9W9: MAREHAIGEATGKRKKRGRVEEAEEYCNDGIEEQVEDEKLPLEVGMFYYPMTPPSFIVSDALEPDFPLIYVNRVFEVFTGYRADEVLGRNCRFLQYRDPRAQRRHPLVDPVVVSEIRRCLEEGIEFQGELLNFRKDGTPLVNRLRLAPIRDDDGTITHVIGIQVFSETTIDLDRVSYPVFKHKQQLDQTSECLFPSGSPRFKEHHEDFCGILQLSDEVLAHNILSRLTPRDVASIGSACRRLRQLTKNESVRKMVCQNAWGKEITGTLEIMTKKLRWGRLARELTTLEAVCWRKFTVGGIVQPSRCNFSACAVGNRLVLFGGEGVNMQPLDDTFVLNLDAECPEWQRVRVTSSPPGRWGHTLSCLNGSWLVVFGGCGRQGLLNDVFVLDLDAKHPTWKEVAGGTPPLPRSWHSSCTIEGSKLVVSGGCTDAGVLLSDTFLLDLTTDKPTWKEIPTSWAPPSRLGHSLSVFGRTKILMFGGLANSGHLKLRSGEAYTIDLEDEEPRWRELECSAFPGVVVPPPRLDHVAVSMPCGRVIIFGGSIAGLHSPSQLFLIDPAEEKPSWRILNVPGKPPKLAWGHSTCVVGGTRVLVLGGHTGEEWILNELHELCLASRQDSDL
UniProt Q96250: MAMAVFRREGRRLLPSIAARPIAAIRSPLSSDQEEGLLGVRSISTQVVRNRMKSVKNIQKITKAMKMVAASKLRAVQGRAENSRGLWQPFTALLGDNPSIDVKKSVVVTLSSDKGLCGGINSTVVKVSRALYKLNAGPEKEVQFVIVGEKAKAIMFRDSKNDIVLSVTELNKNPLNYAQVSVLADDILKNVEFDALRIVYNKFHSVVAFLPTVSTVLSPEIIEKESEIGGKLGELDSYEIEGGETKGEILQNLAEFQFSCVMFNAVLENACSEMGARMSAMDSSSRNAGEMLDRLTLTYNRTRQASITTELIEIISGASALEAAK
UniProt Q9LT08: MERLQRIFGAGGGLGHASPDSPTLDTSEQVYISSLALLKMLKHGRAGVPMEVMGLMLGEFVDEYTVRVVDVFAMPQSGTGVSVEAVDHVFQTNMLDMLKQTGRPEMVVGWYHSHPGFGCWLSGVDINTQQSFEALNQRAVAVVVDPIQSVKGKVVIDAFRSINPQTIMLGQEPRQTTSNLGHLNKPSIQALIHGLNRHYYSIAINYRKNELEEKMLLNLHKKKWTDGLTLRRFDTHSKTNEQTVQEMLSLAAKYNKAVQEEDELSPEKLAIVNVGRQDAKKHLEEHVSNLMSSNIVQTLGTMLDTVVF
UniProt P0DH91: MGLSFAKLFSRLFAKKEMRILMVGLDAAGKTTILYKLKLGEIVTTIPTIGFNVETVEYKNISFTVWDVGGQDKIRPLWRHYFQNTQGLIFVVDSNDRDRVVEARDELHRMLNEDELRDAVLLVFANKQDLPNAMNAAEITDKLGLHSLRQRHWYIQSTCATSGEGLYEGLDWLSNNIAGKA
UniProt Q8W420: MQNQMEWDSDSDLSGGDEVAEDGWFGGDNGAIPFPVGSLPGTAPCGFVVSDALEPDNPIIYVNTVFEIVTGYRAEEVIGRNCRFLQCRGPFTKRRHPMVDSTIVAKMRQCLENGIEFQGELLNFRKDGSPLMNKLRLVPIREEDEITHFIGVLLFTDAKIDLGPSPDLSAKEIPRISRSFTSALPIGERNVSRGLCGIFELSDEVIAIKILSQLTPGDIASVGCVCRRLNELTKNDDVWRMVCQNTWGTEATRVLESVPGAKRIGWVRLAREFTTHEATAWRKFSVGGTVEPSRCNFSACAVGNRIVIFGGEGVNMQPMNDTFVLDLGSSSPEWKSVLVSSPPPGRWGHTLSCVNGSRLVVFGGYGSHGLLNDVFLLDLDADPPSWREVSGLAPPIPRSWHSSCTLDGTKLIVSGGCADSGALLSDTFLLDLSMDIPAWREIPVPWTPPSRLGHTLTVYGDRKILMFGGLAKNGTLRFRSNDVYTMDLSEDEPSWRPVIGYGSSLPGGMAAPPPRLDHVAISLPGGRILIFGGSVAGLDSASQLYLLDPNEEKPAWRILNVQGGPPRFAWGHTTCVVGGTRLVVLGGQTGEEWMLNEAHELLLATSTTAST
UniProt O80576: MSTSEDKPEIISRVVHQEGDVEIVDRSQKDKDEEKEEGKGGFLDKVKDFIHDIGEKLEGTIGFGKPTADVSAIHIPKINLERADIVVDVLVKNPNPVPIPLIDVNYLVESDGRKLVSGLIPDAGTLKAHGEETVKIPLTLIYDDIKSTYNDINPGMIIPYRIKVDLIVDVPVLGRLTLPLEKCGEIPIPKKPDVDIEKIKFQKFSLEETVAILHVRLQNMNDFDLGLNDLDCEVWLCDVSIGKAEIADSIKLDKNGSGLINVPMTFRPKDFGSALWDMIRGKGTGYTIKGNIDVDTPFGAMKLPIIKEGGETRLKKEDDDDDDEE
UniProt Q9C4Z6: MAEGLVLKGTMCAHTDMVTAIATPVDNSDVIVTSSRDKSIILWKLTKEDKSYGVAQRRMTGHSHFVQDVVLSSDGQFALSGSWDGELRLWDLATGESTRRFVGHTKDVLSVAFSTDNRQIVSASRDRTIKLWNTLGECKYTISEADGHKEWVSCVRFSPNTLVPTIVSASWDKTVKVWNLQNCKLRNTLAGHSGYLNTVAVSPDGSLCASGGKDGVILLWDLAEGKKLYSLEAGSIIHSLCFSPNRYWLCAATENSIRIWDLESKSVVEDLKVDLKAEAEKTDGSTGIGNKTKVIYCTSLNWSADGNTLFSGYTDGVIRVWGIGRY
UniProt P28769: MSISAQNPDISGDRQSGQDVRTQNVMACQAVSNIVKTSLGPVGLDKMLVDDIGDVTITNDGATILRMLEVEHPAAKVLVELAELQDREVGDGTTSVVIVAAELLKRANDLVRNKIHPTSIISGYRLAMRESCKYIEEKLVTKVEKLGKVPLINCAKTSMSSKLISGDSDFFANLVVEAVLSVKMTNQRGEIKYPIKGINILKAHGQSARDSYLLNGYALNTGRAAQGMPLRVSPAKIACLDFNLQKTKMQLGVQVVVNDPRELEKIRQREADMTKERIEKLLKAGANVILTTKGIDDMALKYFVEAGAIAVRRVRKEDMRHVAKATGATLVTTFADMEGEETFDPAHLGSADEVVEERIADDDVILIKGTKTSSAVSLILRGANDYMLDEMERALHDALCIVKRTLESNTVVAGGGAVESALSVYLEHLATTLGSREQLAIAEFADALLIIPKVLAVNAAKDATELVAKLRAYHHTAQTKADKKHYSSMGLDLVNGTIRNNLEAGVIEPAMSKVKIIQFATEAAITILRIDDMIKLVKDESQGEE
UniProt O24456: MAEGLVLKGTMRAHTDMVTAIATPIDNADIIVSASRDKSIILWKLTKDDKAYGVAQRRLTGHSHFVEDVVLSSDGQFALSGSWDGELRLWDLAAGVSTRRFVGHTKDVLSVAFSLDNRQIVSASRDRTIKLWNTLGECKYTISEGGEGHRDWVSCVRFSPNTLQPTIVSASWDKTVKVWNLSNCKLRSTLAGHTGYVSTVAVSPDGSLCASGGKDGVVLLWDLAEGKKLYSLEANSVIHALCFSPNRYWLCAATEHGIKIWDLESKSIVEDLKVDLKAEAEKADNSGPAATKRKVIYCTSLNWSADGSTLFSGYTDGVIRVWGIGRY
UniProt P56808: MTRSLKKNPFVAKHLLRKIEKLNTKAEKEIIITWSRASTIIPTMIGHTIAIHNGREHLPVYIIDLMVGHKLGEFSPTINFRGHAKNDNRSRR
UniProt P41376: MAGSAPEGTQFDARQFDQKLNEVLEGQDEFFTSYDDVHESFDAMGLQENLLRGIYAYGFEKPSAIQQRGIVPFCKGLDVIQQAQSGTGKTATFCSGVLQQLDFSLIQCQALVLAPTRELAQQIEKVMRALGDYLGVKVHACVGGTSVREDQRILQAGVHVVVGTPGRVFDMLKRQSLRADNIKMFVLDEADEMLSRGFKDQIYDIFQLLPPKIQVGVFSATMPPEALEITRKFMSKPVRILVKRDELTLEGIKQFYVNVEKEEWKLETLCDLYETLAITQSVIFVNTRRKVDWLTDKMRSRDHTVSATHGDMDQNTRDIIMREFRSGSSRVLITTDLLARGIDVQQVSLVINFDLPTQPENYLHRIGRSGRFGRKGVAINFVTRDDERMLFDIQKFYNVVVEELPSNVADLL
UniProt Q94BT6: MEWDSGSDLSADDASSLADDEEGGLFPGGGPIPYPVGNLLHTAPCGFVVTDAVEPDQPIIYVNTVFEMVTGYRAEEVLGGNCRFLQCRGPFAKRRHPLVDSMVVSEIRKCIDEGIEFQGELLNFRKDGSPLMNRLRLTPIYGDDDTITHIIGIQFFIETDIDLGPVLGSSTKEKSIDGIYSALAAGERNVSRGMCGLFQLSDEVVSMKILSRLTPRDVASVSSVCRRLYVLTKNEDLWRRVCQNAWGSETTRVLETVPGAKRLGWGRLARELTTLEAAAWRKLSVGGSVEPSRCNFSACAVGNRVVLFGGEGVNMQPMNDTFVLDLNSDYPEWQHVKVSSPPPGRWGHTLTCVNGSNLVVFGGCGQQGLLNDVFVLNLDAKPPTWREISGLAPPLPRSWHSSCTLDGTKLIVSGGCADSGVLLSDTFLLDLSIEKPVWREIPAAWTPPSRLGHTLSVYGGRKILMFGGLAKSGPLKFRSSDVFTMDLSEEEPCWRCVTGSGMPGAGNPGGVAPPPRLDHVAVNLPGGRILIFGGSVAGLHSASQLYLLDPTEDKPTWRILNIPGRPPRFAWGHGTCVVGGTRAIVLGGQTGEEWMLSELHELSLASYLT
UniProt F4HVR7: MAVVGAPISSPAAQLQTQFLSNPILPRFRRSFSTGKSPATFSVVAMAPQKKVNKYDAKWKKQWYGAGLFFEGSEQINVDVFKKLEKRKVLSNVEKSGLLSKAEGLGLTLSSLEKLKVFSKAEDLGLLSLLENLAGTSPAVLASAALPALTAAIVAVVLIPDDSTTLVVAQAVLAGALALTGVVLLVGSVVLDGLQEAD

| Substance | binding [1] | binding [2] | binding [3] |
| --- | --- | --- | --- |
| EFTu/EF1‐A (from UniProt Q8GTY0 1-449) | binds | – | – |
| TCP‐1/cpn60 chaperonin (AT3G02530) (from UniProt Q9M888 1-535) | – | binds | – |
| PHOT2 (from UniProt P93025 1-915) | – | binds | – |
| AAA‐type ATPase (AT1G45000.1; AT4G27680) (from UniProt Q9MAK9) | – | binds | – |
| FLAVIN‐BINDING, KELCH REPEAT, F‐BOX 1 (FKF1) (from UniProt Q9C9W9 1-619) | binds | binds | binds |
| ATP3 (from UniProt Q96250) | – | binds | – |
| TPR4 (from UniProt Q8VZ31) | – | binds | binds |
| AT5G23540 (from UniProt Q9LT08 1-308) | binds | – | – |
| ARF2‐B (from UniProt P0DH91 1-181) | binds | – | – |
| LIGHT KELCH PROTEIN 2 (LKP2) (from UniProt Q8W420 1-611) | binds | binds | binds |
| CHC2 (from UniProt Q0WLB5 1-1703) | binds | – | – |
| At2G44060 (from UniProt O80576) | binds | – | – |
| RACK1B_AT (from UniProt Q9C4Z6 1-326) | – | binds | – |

Second part, the substance after the results:

| binding [1] | binding [2] | binding [3] | Substance |
| --- | --- | --- | --- |
| – | binds | – | DEA(D/H)‐box RNA helicase (AT1G72730) (from UniProt Q9CAI7 1-414) |
| binds | binds | – | TCP‐1 (AT3G20050) (from UniProt P28769 1-545) |
| – | binds | – | RACK1A (from UniProt O24456 1-327) |
| – | binds | – | RPS19 (from UniProt P56808 1-92) |
| – | binds | – | TCP‐1/cpn60 chaperonin (AT3G13470) (from UniProt Q9LJE4 51-596) |
| binds | – | – | CALS12 (from UniProt Q9ZT82 1-1780) |
| binds | – | – | EIF4A1 (from UniProt P41376 1-412) |
| binds | binds | binds | ZEITLUPE (ZTL) (from UniProt Q94BT6 1-609) |
| – | binds | – | DUF1118 (from UniProt F4HVR7) |
| – | binds | – | CPN60A (from UniProt P21238) |

From paper PMC6373471
